Earlier results on one compound are cited in US12364668B2, “Treatment of opioid use disorder, opioid withdrawal symptoms, and chronic pain” (THE REGENTS OF THE UNIVERSITY OF CALIFORNIA, priority 2017, dated 2025).

For the data set the following is noted: Pisanti et al. 2017; cited from earlier work.

For `C=C(C)[C@@H]1CCC(C)=C[C@H]1c1c(O)cc(CCCCC)cc1O` [CBD, cannabidiol], the “Bioavailability after oral administration” value is 13-19%.
